# Experimental data published in PubChem BioAssay AID256 (DTP/NCI, 2004).
# The list does not hold the whole screen: it gathers tests that were run many times, whatever their T/C, doses with no T/C, and many T/C values between a quarter and a half above the control. Other doses and runs of a compound stand elsewhere. T/C: endpoint of the treated group in % of that of the vehicle group. Some doses have a count of surviving animals in place of a T/C: the source holds a T/C of zero for them, seemingly a mark for toxic or unscored doses. Some doses without a T/C left all or most animals alive at the check, yet need not have been tolerated: the source hardly ever lists a survival T/C far under the control, and the zero likely stands for such cases as well. Survivors were counted at the toxicity check, usually on the fifth day, unless a day is given; later deaths do not show. Schedule codes are those of the source, taken here to give the interval after Q, in days (D) or hours (H), and the number of doses after X. Some entries hold several experiments; the values are given in rising order. Where survival is the endpoint, the PubChem record calls one and a half times the control and up active, and a quarter to a half above the control has no call in these data; cut-offs in other NCI protocols can differ.
# System: CD2F1 mice, L1210 leukemia ip, survival T/C
# Assay: NCI In Vivo Anticancer Drug Screen. Data for tumor model L1210 Leukemia (intraperitoneal) in CD2F1 (CDF1) mice
# Details: higher T/C = longer survival
# Method in brief: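 Each value reflects a quotient of treated over vehicle control outcomes in mice with a transplanted tumor.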
# [1] = T/C endpoint: mean survival time, dose: 150.0 mg/kg/injection, schedule: Q01DX001 (ip), vehicle: saline
# [2] = T/C endpoint: mean survival time, dose: 300.0 mg/kg/injection, schedule: Q01DX001 (ip), vehicle: saline
# [3] = T/C endpoint: mean survival time, dose: 200.0 mg/kg/injection, schedule: Q01DX009 (ip), vehicle: saline with Tween-80
# [4] = T/C endpoint: mean survival time, dose: 400.0 mg/kg/injection, schedule: Q04DX003 (ip), vehicle: saline with Tween-80
# [5] = T/C endpoint: mean survival time, dose: 200.0 mg/kg/injection, schedule: Q04DX003 (ip), vehicle: saline
# [6] = T/C endpoint: mean survival time, dose: 200.0 mg/kg/injection, schedule: Q01DX009 (ip), vehicle: saline
# [7] = T/C endpoint: mean survival time, dose: 400.0 mg/kg/injection, schedule: Q01DX009 (ip), vehicle: saline with Tween-80
# [8] = T/C endpoint: mean survival time, dose: 100.0 mg/kg/injection, schedule: Q04DX003 (ip), vehicle: saline with Tween-80
# [9] = T/C endpoint: mean survival time, dose: 200.0 mg/kg/injection, schedule: Q04DX003 (ip), vehicle: saline with Tween-80
compound,measurement,setting,value
CN(C)C(=C1C=CC=C1)N(C)C,survivor count,[1],2 of 6
same,survivor count,[2],0 of 6
O=C(O)c1cnc2cc(Cl)ccc2n1,survivor count,[3],3 of 6
same,survivor count,[4],3 of 6
NCc1ccc(-c2nc3ncnc(N)c3[nH]2)cc1,survivor count,"T/C endpoint: mean survival time, dose: 25.0 mg/kg/injection, schedule: Q01DX001 (ip), vehicle: saline with Tween-80",3 of 6
same,survivor count,"T/C endpoint: mean survival time, dose: 50.0 mg/kg/injection, schedule: Q01DX001 (ip), vehicle: saline with Tween-80",2 of 6
same,survivor count,"T/C endpoint: mean survival time, dose: 200.0 mg/kg/injection, schedule: Q01DX001 (ip), vehicle: saline with Tween-80",1 of 6
same,survivor count,"T/C endpoint: mean survival time, dose: 400.0 mg/kg/injection, schedule: Q01DX001 (ip), vehicle: saline with Tween-80",0 of 6
COc1ccc(C(C)c2cc3c(cc2OC)OCO3)cc1 (stereo not drawn),survivor count,"T/C endpoint: median survival time, dose: 400.0 mg/kg/injection, schedule: Q01DX009 (ip), vehicle: saline with Tween-80",0 of 5
CNNCCCCC(=O)NC(C)C,survivor count,[5],2 of 6
same,survivor count,"T/C endpoint: mean survival time, dose: 400.0 mg/kg/injection, schedule: Q04DX003 (ip), vehicle: saline",1 of 6
C=CC(=O)NCNC(=O)C=C,T/C,"T/C endpoint: mean survival time, dose: 100.0 mg/kg/injection, schedule: Q01DX009 (ip), vehicle: saline with Tween-80",137 % of control
same,survivor count,[3],3 of 6
same,survivor count,[6],2 of 6
same,survivor count,[7],0 of 6
same,survivor count,"T/C endpoint: mean survival time, dose: 400.0 mg/kg/injection, schedule: Q01DX009 (ip), vehicle: saline",0 of 6
CC([NH-])CC(C)[NH-].[Cl][Pt+2][Cl] (stereo not drawn),T/C,"T/C endpoint: mean survival time, dose: 3.12 mg/kg/injection, schedule: Q04DX003 (ip), vehicle: saline with Tween-80",144 % of control
same,T/C,"T/C endpoint: mean survival time, dose: 6.25 mg/kg/injection, schedule: Q04DX003 (ip), vehicle: saline with Tween-80",148 % of control
same,T/C,"T/C endpoint: mean survival time, dose: 12.5 mg/kg/injection, schedule: Q04DX003 (ip), vehicle: saline with Tween-80",128 % of control
O=C1OC(=O)C2C3C=CC(C3)C12 (stereo not drawn),survivor count,[8],5 of 6
same,survivor count,[9],1 of 6
same,survivor count,[4],0 of 6
CCOC(=O)N1Cc2cc3ccccc3nc2C1,survivor count,"T/C endpoint: mean survival time, dose: 300.0 mg/kg/injection, schedule: Q01DX009 (ip), vehicle: saline with Tween-80",2 of 6
CNC(=O)c1ccccc1N=NN(C)C,T/C,"T/C endpoint: mean survival time, dose: 75.0 mg/kg/injection, schedule: Q01DX009 (ip), vehicle: Klucel (hydroxypropylcellulose) (HPC)",130 and 145 % of control
same,survivor count,"T/C endpoint: mean survival time, dose: 300.0 mg/kg/injection, schedule: Q01DX009 (ip), vehicle: Klucel (hydroxypropylcellulose) (HPC)",0 of 6
COc1cc2c(c(OC)c1O)-c1ccc(OC)c(=O)cc1[C@@H](NC(C)=O)CC2,T/C,"T/C endpoint: mean survival time, dose: 6.25 mg/kg/injection, schedule: Q01DX009 (ip), vehicle: saline",135 % of control
same,T/C,"T/C endpoint: mean survival time, dose: 10.0 mg/kg/injection, schedule: Q01DX005 (ip), vehicle: Klucel (hydroxypropylcellulose) (HPC)",126 % of control
same,T/C,"T/C endpoint: mean survival time, dose: 12.5 mg/kg/injection, schedule: Q01DX009 (ip), vehicle: saline",142 % of control
same,survivor count,"T/C endpoint: mean survival time, dose: 25.0 mg/kg/injection, schedule: Q01DX009 (ip), vehicle: saline",3 of 6
CC1(C)N=C(N)N=C(N)N1c1ccc(C(=O)c2ccccc2)cc1,survivor count,[9],0 of 6
same,survivor count,[4],0 of 6
ONc1ccccn1,survivor count,[5],2 of 6
CC(=O)C(=O)C1=C2CCCN2CCc2cc3c(cc21)OCO3,survivor count,"T/C endpoint: mean survival time, dose: 200.0 mg/kg/injection, schedule: Q01DX009 (ip), vehicle: water",1 of 6
same,survivor count,"T/C endpoint: mean survival time, dose: 400.0 mg/kg/injection, schedule: Q01DX009 (ip), vehicle: water",0 of 6
CC(C)=CC[Se]c1ncnc2c1ncn2C1OC(CO)C(O)C1O (stereo not drawn),survivor count,"T/C endpoint: mean survival time, dose: 100.0 mg/kg/injection, schedule: Q01DX005 (ip), vehicle: saline",3 of 6
same,survivor count,"T/C endpoint: mean survival time, dose: 200.0 mg/kg/injection, schedule: Q01DX005 (ip), vehicle: saline",0 of 6
O=C1NC(=O)C(=Cc2cc3c(cc2Br)OCO3)C(=O)N1,survivor count,"T/C endpoint: mean survival time, dose: 400.0 mg/kg/injection, schedule: Q01DX009 (ip), vehicle: Klucel (hydroxypropylcellulose) (HPC)",0 of 6
CCOC(=O)c1ccc(Nc2nnc(-c3ccc(OC)cc3OC)s2)cc1,survivor count,[3],3 of 3
same,survivor count,[7],3 of 3
Nc1ncn(C2CC(O)C(CO)O2)c(=O)n1 (stereo not drawn),T/C,"T/C endpoint: mean survival time, dose: 2.0 mg/kg/injection, schedule: Q01DX009 (ip), vehicle: Klucel (hydroxypropylcellulose) (HPC)",128 % of control
same,T/C,"T/C endpoint: mean survival time, dose: 2.0 mg/kg/injection, schedule: Q01DX009 (ip), vehicle: saline",143 and 149 % of control
same,T/C,"T/C endpoint: mean survival time, dose: 4.0 mg/kg/injection, schedule: Q01DX009 (ip), vehicle: saline",126 % of control
same,T/C,"T/C endpoint: mean survival time, dose: 133.0 mg/kg/injection, schedule: Q04DX003 (ip), vehicle: saline with Tween-80",130 % of control
same,T/C,[9],127 % of control
same,T/C,"T/C endpoint: mean survival time, dose: 300.0 mg/kg/injection, schedule: Q04DX003 (ip), vehicle: saline with Tween-80",139 % of control
same,T/C,"T/C endpoint: median survival time, dose: 2.0 mg/kg/injection, schedule: Q01DX009 (ip), vehicle: saline",131 % of control
same,T/C,"T/C endpoint: median survival time, dose: 4.0 mg/kg/injection, schedule: Q01DX009 (ip), vehicle: saline",137 % of control
COc1ccc([N+](=O)[O-])cc1CN(C)C(C)C,survivor count,"T/C endpoint: mean survival time, dose: 100.0 mg/kg/injection, schedule: Q04DX003 (ip), vehicle: Klucel (hydroxypropylcellulose) (HPC)",0 of 6
same,survivor count,"T/C endpoint: mean survival time, dose: 200.0 mg/kg/injection, schedule: Q04DX003 (ip), vehicle: Klucel (hydroxypropylcellulose) (HPC)",0 of 6
same,survivor count,"T/C endpoint: mean survival time, dose: 400.0 mg/kg/injection, schedule: Q04DX003 (ip), vehicle: Klucel (hydroxypropylcellulose) (HPC)",0 of 6
CC(/C=N/N(C)C)=N/[N+](C)(C)C,survivor count,[6],1 of 3
O=C(O)C(O)C(O)C(OC1OC(CO)C(O)C(O)C1O)C(O)CO.[Br][Pt].[NH-]C1CCCCC1[NH-] (stereo not drawn),T/C,"T/C endpoint: median survival time, dose: 6.25 mg/kg/injection, schedule: Q04DX003 (ip), vehicle: saline",130 % of control
same,T/C,"T/C endpoint: median survival time, dose: 12.5 mg/kg/injection, schedule: Q04DX003 (ip), vehicle: saline",141 % of control
same,survivor count,"T/C endpoint: median survival time, dose: 100.0 mg/kg/injection, schedule: Q04DX003 (ip), vehicle: saline",1 of 6 and 4 of 6
CCNc1nc(NCC)nc(OC)n1,survivor count,[4],3 of 6
CCN(CC)CCOc1ccc2c(c1)C(=O)c1cc(OCCN(CC)CC)ccc1-2,survivor count,"T/C endpoint: mean survival time, dose: 100.0 mg/kg/injection, schedule: Q01DX009 (ip), vehicle: saline",3 of 6
Nc1c([N+](=O)[O-])cncc1[N+](=O)[O-],survivor count,[8],0 of 6
same,survivor count,[9],0 of 6
same,survivor count,[4],0 of 6
CN1CCCC(OC(=O)C(c2ccccc2)C2(O)CCCCC2)C1 (stereo not drawn),survivor count,[1],2 of 6
same,survivor count,[2],0 of 6
O=P1(N2CC2)OCCCN1CCCl (stereo not drawn),survivor count,"T/C endpoint: mean survival time, dose: 60.0 mg/kg/injection, schedule: Q01DX001 (ip), vehicle: distilled water + Tween-80",0 of 6
same,survivor count,"T/C endpoint: mean survival time, dose: 125.0 mg/kg/injection, schedule: Q01DX001 (ip), vehicle: saline with Tween-80",2 of 6
same,survivor count,"T/C endpoint: mean survival time, dose: 250.0 mg/kg/injection, schedule: Q01DX001 (ip), vehicle: saline with Tween-80",0 of 6
same,survivor count,"T/C endpoint: mean survival time, dose: 500.0 mg/kg/injection, schedule: Q01DX001 (ip), vehicle: saline with Tween-80",0 of 6
NC(=S)N/N=C/c1ccc([N+](=O)[O-])cc1,survivor count,"T/C endpoint: mean survival time, dose: 150.0 mg/kg/injection, schedule: Q01DX001 (ip), vehicle: saline with Tween-80",0 of 6
same,survivor count,"T/C endpoint: mean survival time, dose: 300.0 mg/kg/injection, schedule: Q01DX001 (ip), vehicle: saline with Tween-80",0 of 6
C1CNCOC1,T/C,[6],130 % of control
same,survivor count,"T/C endpoint: median survival time, dose: 200.0 mg/kg/injection, schedule: Q01DX009 (ip), vehicle: saline",1 of 6
Nn1cnnc1,survivor count,"T/C endpoint: mean survival time, dose: 400.0 mg/kg/injection, schedule: Q01DX001 (ip), vehicle: saline",1 of 6
[N-]=[N+]=NC1=C(c2ccccc2)C(=O)C=C(c2ccccc2)C1=O,survivor count,[9],3 of 3
O=c1c(-c2ccccc2)c1-c1ccccc1,survivor count,[9],5 of 6
same,survivor count,[4],3 of 6
